The record followed here is US20170355771A1 (Biogen, published 2017).

Where a chain is given by its changes, count along the chain named. Results are given in words; binding and its absence hold for the method and conditions named. Binding can be weak; no strength is given.

Sequences and labels used below:
B1: humanized 34D10 Fab L0/H2 (Fab, V domains shown)
VH: EVQLVESGGGLVKPGGSLRLSCAASGFTFSAYAMSWVRQAPGKGLVWVASISSGGTTYYPDSVKRQFTISRDNAKNTLYLQMNSLRAEDTAVYYCTRGGDYGYALDYWGQGTLVTVSS
VL: EIVMTQSPATLSVSPGERATLSCRASSSVNYMYWYQQKPGQAPRLLIYYTSNLAPGIPARFSGSGSGTEFTLTISSLQSEDFAVYYCQQFSSSPWTFGQGTKVEIK
notes: Fab; also called VL0/VH2
B2: humanized 34D10 Fab L0/H3 (Fab, V domains shown)
VH: B1 VH with E6Q, G16E, V46E, Q66R
VL: B1 VL
B3: humanized 34D10 Fab L0/H4 (Fab, V domains shown)
VH: B1 VH with E6Q, G16E, V46E, Q66R, A74S, K75R
VL: B1 VL
B4: humanized 34D10 Fab L0/H5 (Fab, V domains shown)
VH: B1 VH with Q3K, V46E, Q66R, K75R
VL: B1 VL
notes: Fab; also called VL0/VH5
B5: mouse Fab (34D10) (Fab, V domains shown)
VH: EVKLVESGGGLVKPGGSLKLSCAASGFTFSAYAMSWVRQTPEKRLEWVASISSGGTTYYPDSVKRRFTISRDNARNILYLQMSSLRSEDTAMYYCTRGGDYGYALDYWGQGTSVTVSS
VL: ENVLTQSPAIMSASLGEKVTMSCRASSSVNYMYWYQQKSDASPKLWIYYTSNLAPGVPARFSGSGSGNSYSLTISSMEGEDAATYYCQQFSSSPWTFGGGTKLEIK
notes: Fab; also called mouse 34D10 Fab

The first assay has as its target GPIIb/IIIa on gel-purified human platelets (human). Nature of the assay: flow cytometry on gel-purified human platelets. Background: Flow cytometry measures light scatter and fluorescence of single cells or particles in a stream.
For B1, the binding result is reported as “binds”.

On to B2, for which the binding entry is listed as “binds”.

Take B3: the binding result is “binds”.

For the molecule B4, the binding entry was “binds”.

Turning to B5, the binding result was “binds”.

Another assay shares this target. The experiment in a line: flow cytometry on human platelets (summary of Example 2).
As to B1, the binding result is on record as “binds”.

For the molecule B4, the binding entry is on record as “binds”.

With B5, the binding entry is on record as “binds”.

The next assay shares this target. The experiment in a line: flow cytometry on gel-purified human platelets, PE-labeled anti-human Fab detection; EC50 = Fab concentration at half-maximal MFI.
For B1, the binding result was “binds”.

Take B2: the binding entry was “binds”.

Regarding B3, the binding entry is “binds”.

B4: the binding result is “binds”.

As for B5, the binding entry is given as “binds”.
